Details: nanodiscs formed with 3 equivalents of MA-SMA

SMILES: CCCCCCCCCC(=O)N[C@@H](Cc1c[nH]c2ccccc12)C(=O)N[C@H](CC(N)=O)C(=O)N[C@@H](CC(=O)O)C(=O)N[C@@H]1C(=O)NCC(=O)N[C@@H](CCCN)C(=O)N[C@@H](CC(=O)O)C(=O)N[C@H](C)C(=O)N[C@@H](CC(=O)O)C(=O)NCC(=O)N[C@H](CO)C(=O)N[C@@H]([C@H](C)CC(=O)O)C(=O)N[C@@H](CC(=O)c2ccccc2N)C(=O)O[C@@H]1C [daptomycin]
- estimated subunit number of daptomycin oligomer: 7.4±0.33
